{"source": "PubChem BioAssay AID1259405 (NCATS, 2018)", "assay": "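Silenced genes that increase secreted GFP made by CHO cells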 (primary screen)", "cell system": "Chinese hamster CHO-K1 ovary cells with stable secreted eGFP expression", "reagents": "single siRNA against mouse genes, 0.8 pmol siRNA per well (2 µl of 400 nM stock)", "time to read-out": "3 days", "read-out": "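Per-well intracellular GFP measured by laser scanning cytometry, plus viability from ATP luminescence, each relative to plate median of non-targeting control wells, in %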", "direction": "GFP, % of control: higher = more GFP per well, higher productivity; viability (ATP), % of control: higher = more viable cells (more ATP)", "rule for the call": "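Called active when intracellular GFP, relative to negative control, is at or above 120%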", "note": "Here is one part, drawn at random, of about 50,000 deposited reagents. About 4,000 of all reagents (8%) were called active. 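Mouse siRNA library applied to hamster cells; one well for each siRNA.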 The numbers tell different reagents against one gene apart. No sequences are given here."}
{"gene symbol":"Atf5","siRNA no.":1,"GFP, % of control":66.1,"viability (ATP), % of control":67.4,"Outcome":"inactive"}
{"gene symbol":"Atf5","siRNA no.":2,"GFP, % of control":97,"viability (ATP), % of control":74.8,"Outcome":"inactive"}
{"gene symbol":"H2bc6","siRNA no.":1,"GFP, % of control":46.1,"viability (ATP), % of control":63.3,"Outcome":"inactive"}
{"gene symbol":"H2bc6","siRNA no.":2,"GFP, % of control":97,"viability (ATP), % of control":98.9,"Outcome":"inactive"}
{"gene symbol":"H2bc6","siRNA no.":3,"GFP, % of control":105,"viability (ATP), % of control":102,"Outcome":"inactive"}
{"gene symbol":"Uty","siRNA no.":1,"GFP, % of control":57.5,"viability (ATP), % of control":62.3,"Outcome":"inactive"}
{"gene symbol":"Uty","siRNA no.":2,"GFP, % of control":59.4,"viability (ATP), % of control":72.1,"Outcome":"inactive"}
{"gene symbol":"Uty","siRNA no.":3,"GFP, % of control":86.5,"viability (ATP), % of control":109,"Outcome":"inactive"}
{"gene symbol":"Slc13a5","siRNA no.":1,"GFP, % of control":55.8,"viability (ATP), % of control":66.2,"Outcome":"inactive"}
{"gene symbol":"Slc13a5","siRNA no.":2,"GFP, % of control":32.3,"viability (ATP), % of control":44.6,"Outcome":"inactive"}
{"gene symbol":"Slc13a5","siRNA no.":3,"GFP, % of control":81.8,"viability (ATP), % of control":79.3,"Outcome":"inactive"}
{"gene symbol":"AI987944","siRNA no.":1,"GFP, % of control":71.8,"viability (ATP), % of control":54.9,"Outcome":"inactive"}
{"gene symbol":"AI987944","siRNA no.":2,"GFP, % of control":55,"viability (ATP), % of control":62.1,"Outcome":"inactive"}
{"gene symbol":"AI987944","siRNA no.":3,"GFP, % of control":86.2,"viability (ATP), % of control":96,"Outcome":"inactive"}
{"gene symbol":"Dbpht2","siRNA no.":1,"GFP, % of control":78.2,"viability (ATP), % of control":72.9,"Outcome":"inactive"}
{"gene symbol":"Dbpht2","siRNA no.":2,"GFP, % of control":108,"viability (ATP), % of control":87.2,"Outcome":"inactive"}
{"gene symbol":"Dbpht2","siRNA no.":3,"GFP, % of control":55.5,"viability (ATP), % of control":62.3,"Outcome":"inactive"}
{"gene symbol":"Cyth1","siRNA no.":1,"GFP, % of control":68.4,"viability (ATP), % of control":60.3,"Outcome":"inactive"}
{"gene symbol":"Cyth1","siRNA no.":2,"GFP, % of control":97.7,"viability (ATP), % of control":117,"Outcome":"inactive"}
{"gene symbol":"Cyth1","siRNA no.":3,"GFP, % of control":71.9,"viability (ATP), % of control":61.1,"Outcome":"inactive"}
{"gene symbol":"Snap91","siRNA no.":1,"GFP, % of control":123,"viability (ATP), % of control":79.2,"Outcome":"active"}
{"gene symbol":"Snap91","siRNA no.":2,"GFP, % of control":109,"viability (ATP), % of control":64.3,"Outcome":"inactive"}
{"gene symbol":"Snap91","siRNA no.":3,"GFP, % of control":68.8,"viability (ATP), % of control":86.7,"Outcome":"inactive"}
{"gene symbol":"Zfp36l1","siRNA no.":1,"GFP, % of control":78.8,"viability (ATP), % of control":79.8,"Outcome":"inactive"}
{"gene symbol":"Zfp36l1","siRNA no.":2,"GFP, % of control":85.4,"viability (ATP), % of control":87.5,"Outcome":"inactive"}
{"gene symbol":"Creg1","siRNA no.":1,"GFP, % of control":73,"viability (ATP), % of control":90,"Outcome":"inactive"}
{"gene symbol":"Creg1","siRNA no.":2,"GFP, % of control":71.6,"viability (ATP), % of control":101,"Outcome":"inactive"}
{"gene symbol":"Creg1","siRNA no.":3,"GFP, % of control":63.7,"viability (ATP), % of control":62.7,"Outcome":"inactive"}

Entries above whose target name begins with Z or z (2):
{"gene symbol":"Zfp36l1","siRNA no.":1,"GFP, % of control":78.8,"viability (ATP), % of control":79.8,"Outcome":"inactive"}
{"gene symbol":"Zfp36l1","siRNA no.":2,"GFP, % of control":85.4,"viability (ATP), % of control":87.5,"Outcome":"inactive"}
